Measured values as given in publication PMC3150275.
Results are given in words; binding and its absence hold for the method and conditions named. Binding seen in cells or lysates may run through a third protein.

Protein sequences, listed by entry. Tags and fused reporters are not part of them. Residues count along the entry.
UniProt Q8Y3L4, residues 26-824: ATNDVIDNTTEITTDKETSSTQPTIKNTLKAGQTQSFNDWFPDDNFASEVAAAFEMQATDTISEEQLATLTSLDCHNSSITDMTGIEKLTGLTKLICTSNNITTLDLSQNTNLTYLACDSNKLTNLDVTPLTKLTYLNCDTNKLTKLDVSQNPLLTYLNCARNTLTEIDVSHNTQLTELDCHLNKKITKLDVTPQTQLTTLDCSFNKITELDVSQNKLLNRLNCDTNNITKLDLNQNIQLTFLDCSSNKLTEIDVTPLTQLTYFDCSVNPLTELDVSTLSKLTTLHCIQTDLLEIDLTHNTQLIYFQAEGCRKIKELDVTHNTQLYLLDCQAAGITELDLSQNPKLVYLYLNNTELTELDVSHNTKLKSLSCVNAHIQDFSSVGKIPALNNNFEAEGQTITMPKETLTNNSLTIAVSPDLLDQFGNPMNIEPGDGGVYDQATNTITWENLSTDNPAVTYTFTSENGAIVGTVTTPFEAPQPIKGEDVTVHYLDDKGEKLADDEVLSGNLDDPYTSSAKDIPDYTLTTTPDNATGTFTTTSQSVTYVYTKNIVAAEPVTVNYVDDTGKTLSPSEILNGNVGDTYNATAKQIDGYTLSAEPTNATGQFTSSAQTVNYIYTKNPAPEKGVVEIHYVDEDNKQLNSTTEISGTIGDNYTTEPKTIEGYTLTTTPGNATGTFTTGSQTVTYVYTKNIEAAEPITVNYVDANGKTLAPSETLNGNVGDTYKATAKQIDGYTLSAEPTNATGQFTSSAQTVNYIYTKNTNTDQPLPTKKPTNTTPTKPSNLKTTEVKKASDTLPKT
UniProt Q14764: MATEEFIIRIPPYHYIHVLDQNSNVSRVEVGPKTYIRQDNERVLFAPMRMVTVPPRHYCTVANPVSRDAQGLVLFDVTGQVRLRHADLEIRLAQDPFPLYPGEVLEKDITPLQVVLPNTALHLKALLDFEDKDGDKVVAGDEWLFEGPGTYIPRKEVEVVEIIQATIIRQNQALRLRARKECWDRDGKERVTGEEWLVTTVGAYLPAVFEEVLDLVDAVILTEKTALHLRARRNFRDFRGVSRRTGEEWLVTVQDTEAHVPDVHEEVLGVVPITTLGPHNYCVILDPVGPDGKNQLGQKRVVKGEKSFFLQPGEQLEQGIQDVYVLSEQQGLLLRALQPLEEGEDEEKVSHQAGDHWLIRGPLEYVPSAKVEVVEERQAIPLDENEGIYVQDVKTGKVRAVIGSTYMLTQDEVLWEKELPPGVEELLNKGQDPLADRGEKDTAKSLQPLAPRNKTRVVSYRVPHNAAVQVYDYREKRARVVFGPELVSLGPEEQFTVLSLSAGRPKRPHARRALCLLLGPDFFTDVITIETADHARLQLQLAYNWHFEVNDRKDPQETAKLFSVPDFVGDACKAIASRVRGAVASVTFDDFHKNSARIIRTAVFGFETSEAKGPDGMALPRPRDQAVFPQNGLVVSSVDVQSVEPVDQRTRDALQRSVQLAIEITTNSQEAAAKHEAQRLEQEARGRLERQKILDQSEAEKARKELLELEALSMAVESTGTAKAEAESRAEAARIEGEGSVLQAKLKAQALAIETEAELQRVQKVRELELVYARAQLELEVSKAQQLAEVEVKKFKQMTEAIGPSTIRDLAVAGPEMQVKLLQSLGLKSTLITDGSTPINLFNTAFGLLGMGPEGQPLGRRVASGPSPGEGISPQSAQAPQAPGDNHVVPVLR

Legend:
[1] = molecular target: InlJ on the surface of InlJ over-expressing L. monocytogenes (Listeria monocytogenes) (UniProt Q8Y3L4); experiment: pull-down; bacterial pull-down: whole L. monocytogenes (1 ml, OD600 1.0) in 20 mM HEPES pH 7.5, 150 mM NaCl, 1 mM CaCl2, 1 mM MgCl2, 0.2% BSA, room temperature; GST fusion protein added (GST-MVP 1 µg/ml) for 1 h; washes with 300 mM NaCl, 0.05% Tween 20; Western blot of bacterial pellets; only the binder purified
[2] = molecular target: InlJ on the surface of InlJ over-expressing L. monocytogenes (Listeria monocytogenes) (UniProt Q8Y3L4); experiment: pull-down; bacterial pull-down: whole L. monocytogenes incubated 1 h at room temperature with cleared lysates of MVP-GFP transfected HeLa cells (Tris-HCl 50 mM pH 7.5, NaCl 150 mM, EDTA 2 mM, NP40 1%); five washes; Western blot

| Substance | binding [1] | binding [2] |
| --- | --- | --- |
| GST-tagged purified recombinant MVP protein (from UniProt Q14764 1-893) | no binding (tested: 1 µg/ml) | – |
| MVP-GFP (from UniProt Q14764 1-893) | – | no binding |
